In PMC3794912 one finds binding data, which are given here for two molecules.

Protein sequences, listed by entry. Tags and fused reporters are not part of them.
UniProt P11632: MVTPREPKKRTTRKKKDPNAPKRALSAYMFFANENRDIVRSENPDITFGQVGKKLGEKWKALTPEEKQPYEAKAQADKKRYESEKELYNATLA
UniProt P43588: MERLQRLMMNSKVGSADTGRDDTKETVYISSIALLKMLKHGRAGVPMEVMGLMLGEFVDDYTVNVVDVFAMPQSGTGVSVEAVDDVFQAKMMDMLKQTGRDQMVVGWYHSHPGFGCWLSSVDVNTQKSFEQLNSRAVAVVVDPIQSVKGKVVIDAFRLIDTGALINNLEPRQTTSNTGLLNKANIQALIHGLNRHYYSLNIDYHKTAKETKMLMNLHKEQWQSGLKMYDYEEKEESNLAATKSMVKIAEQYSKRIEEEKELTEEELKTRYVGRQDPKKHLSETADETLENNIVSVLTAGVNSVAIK
UniProt P02294: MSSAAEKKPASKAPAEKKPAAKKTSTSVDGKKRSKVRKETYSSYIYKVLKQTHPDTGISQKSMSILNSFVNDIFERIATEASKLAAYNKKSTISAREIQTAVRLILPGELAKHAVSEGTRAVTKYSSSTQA

In assay [1] the target is Nhp6a::F[1,2] (S. cerevisiae) (UniProt P11632). Description: split reporter; mDHFR protein-fragment complementation assay (PCA) in living S. cerevisiae; fragments F[1,2] and F[3] fused at the C-termini; read-out growth or colony size on medium with 200 µg/ml methotrexate (serial dilutions, robotic pinning, genome-wide rPCA screens).
The target in assay [2] is Rpn11::F[3] (S. cerevisiae) (UniProt P43588). The description is as above.

These are yes or no findings as the source states them, for the method shown. Binding seen in cells or lysates may run through a third protein. Some binding calls cover weakened binding; strength is not graded here.

On to “Htb2::F[1,2] (from UniProt P02294 1-131)”, for which, in assay [1], the binding result was “binds”.

B1: Rpn5::F[1,2] (protein, UniProt Q12250 1-445)
chain: MSRDAPIKADKDYSQILKEEFPKIDSLAQNDCNSALDQLLVLEKKTRQASDLASSKEVLAKIVDLLASRNKWDDLNEQLTLLSKKHGQLKLSIQYMIQKVMEYLKSSKSLDLNTRISVIETIRVVTENKIFVEVERARVTKDLVEIKKEEGKIDEAADILCELQVETYGSMEMSEKIQFILEQMELSILKGDYSQATVLSRKILKKTFKNPKYESLKLEYYNLLVKISLHKREYLEVAQYLQEIYQTDAIKSDEAKWKPVLSHIVYFLVLSPYGNLQNDLIHKIQNDNNLKKLESQESLVKLFTTNELMRWPIVQKTYEPVLNEDDLAFGGEANKHHWEDLQKRVIEHNLRVISEYYSRITLLRLNELLDLTESQTETYISDLVNQGIIYAKVNRPAKIVNFEKPKNSSQLLNEWSHNVDELLEHIETIGHLITKEEIMHGLQAK
B1: the binding entry in assay [2] is on record as “binds”.
